# Results are given in words; binding and its absence hold for the method and conditions named. In cells and extracts the contact can be indirect. Some results given as binding are weak or reduced against the parent protein; the word gives no strength. Tags and fused reporters may be left off the sequences shown.
# T1: RanGAP1, non-sumoylated form, endogenous (human (endogenous in Jurkat)) (UniProt P46060)
# T1 sequence: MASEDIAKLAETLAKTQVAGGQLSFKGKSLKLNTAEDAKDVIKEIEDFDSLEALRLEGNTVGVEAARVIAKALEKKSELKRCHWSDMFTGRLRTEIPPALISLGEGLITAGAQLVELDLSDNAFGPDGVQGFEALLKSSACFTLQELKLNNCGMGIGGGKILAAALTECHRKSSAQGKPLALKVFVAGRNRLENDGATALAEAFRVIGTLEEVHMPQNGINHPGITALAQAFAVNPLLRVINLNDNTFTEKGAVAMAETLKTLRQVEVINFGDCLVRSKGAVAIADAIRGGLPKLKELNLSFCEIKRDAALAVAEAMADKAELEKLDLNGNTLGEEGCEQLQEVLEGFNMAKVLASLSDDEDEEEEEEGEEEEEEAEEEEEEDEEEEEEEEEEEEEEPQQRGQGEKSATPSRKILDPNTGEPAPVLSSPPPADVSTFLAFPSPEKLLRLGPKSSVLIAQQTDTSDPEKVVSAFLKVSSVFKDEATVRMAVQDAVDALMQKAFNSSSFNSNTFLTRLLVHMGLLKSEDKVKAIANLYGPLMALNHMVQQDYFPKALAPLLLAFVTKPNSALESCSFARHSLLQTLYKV
# Target: T1, RanGAP1, non-sumoylated form, endogenous (human (endogenous in Jurkat))
# Assay: co-IP
binder,measurement,value
"c-Myc-tagged PKC-θ-A148E (enzyme, UniProt Q04759 1-706) MSPFLRIGLSNFDCGSCQSCQGEAVNPYCAVLVKEYVESENGQMYIQKKPTMYPPWDSTFDAHINKGRVMQIIVKGKNVDLISETTVELYSLAERCRKNNGKTEIWLELKPQGRMLMNARYFLEMSDTKDMNEFETEGFFALHQRRGEIKQAKVHHVKCHEFTATFFPQPTFCSVCHEFVWGLNKQGYQCRQCNAAIHKKCIDKVIAKCTGSAINSRETMFHKERFKIDMPHRFKVYNYKSPTFCEHCGTLLWGLARQGLKCDACGMNVHHRCQTKVANLCGINQKLMAEALAMIESTQQARCLRDTEQIFREGPVEIGLPCSIKNEARPPCLPTPGKREPQGISWESPLDEVDKMCHLPEPELNKERPSLQIKLKIEDFILHKMLGKGSFGKVFLAEFKKTNQFFAIKALKKDVVLMDDDVECTMVEKRVLSLAWEHPFLTHMFCTFQTKENLFFVMEYLNGGDLMYHIQSCHKFDLSRATFYAAEIILGLQFLHSKGIVYRDLKLDNILLDKDGHIKIADFGMCKENMLGDAKTNTFCGTPDYIAPEILLGQKYNHSVDWWSFGVLLYEMLIGQSPFHGQDEEELFHSIRMDNPFYPRWLEKEAKDLLVKLFVREPEKRLGVRGDIRQHPLFREINWEELERKEIDPPFRPKVKSPFDCSNFDKEFLNEKPRLSFADRALINSMDQNMFRNFSFMNPGMERLIS",binding,binds

# Reference: publication doi:10.1101/2021.03.10.434793
